Assay results: PubChem BioAssay AID504834 (National Center for Advancing Translational Sciences (NCATS), 2011)
About 22,000 (6.9%) of roughly 320,000 compounds were called active. Inconclusive results, whose numbers are uncertain, are shown with a selection of clear calls. Calls follow the shape of the dose curve; as a rule, active = well fitted inhibition curve with a large enough effect; inconclusive = small, poorly fitted or top-dose-only effect, or another doubt; inactive = no such curve, though single readings can be large or run the other way. A potency beside an inconclusive call is a rough fit, not a confirmed value.

test: Primary qHTS for delayed death inhibitors of the malarial parasite plastid, 96 hour incubation; conditions: P. falciparum luciferase reporter growth; series mostly up to 28.7 µM; activity change, negative = inhibition: at the top concentration
Outline: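 96 h incubation, 37 C, 5% CO2, of luciferase-reporter P. falciparum-infected RBCs (2% hematocrit, 0.05% parasitemia final) with test compounds; endpoint luminescence.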
% is scaled to controls: 0 for no effect and ±100 for the full control effect; potency is read from the fitted curve at half-maximal effect.

Row | Compound | Potency | activity change, negative = inhibition
1 | Cc1ccc(S(=O)(=O)N2[C@@H](c3ccc(Cl)cc3)C(C(=O)O)=CC[C@H]2c2ccc3c(c2)OCO3)cc1 | active: 8.28 µM | –
2 | COC(=O)CN(c1ccccn1)S(=O)(=O)c1ccccc1 | active: 2.33 µM | –
3 | COc1cc(/C=C/C(=O)Nc2ccc(C)cc2)cc(OC)c1OC | inconclusive: 9.28 µM [inhibitor, single point] | –
4 | O=S(=O)(c1ccccc1F)N1CCCc2ccccc21 | inconclusive: 18.5 µM [inhibitor, single point] | –
5 | O=C(Nc1ccc2ccccc2c1)c1cccnc1 | inconclusive: 0.522 µM [inhibitor, full curve, poor fit] | –
6 | COC(=O)c1c(C)cc(C)n2c1nc1ccccc12 | active: 7.38 µM | –
7 | CCN(Cc1ccccc1)C(=O)CSc1ncn[nH]1 | inconclusive: 0.0208 µM [inhibitor, full curve] | –
8 | CC1CCCCC12NC(=O)N(Cn1nnc3ccccc3c1=O)C2=O (centres undefined) | inconclusive: 18.5 µM [inhibitor, single point] | –
9 | CC(C)(C)C(=O)O/N=C(\N)COc1cccc(Cl)c1 | inconclusive: 18.5 µM [inhibitor, single point] | –
10 | Cc1ccc2c(CN(C)Cc3ccc(Cl)cc3)cc(=O)oc2c1 | – | inactive: -11.2%
11 | Cc1c(C)c2ccc(O[C@@H]3O[C@H](CO)[C@H](O)[C@H](O)[C@H]3O)cc2oc1=O | – | inactive: 28.4%
12 | CCC(NS(=O)(=O)c1ccc(OC)cc1)C(=O)NCCC1=CCCCC1 (centres undefined) | inconclusive: 7.38 µM [inhibitor, single point] | –
13 | O=C(/C=C/c1ccccc1Cl)NCCc1ccccc1 | active: 11.7 µM | –
14 | COC(=O)c1cccnc1-n1c(=O)c2cccnc2n(Cc2cccc(OC)c2)c1=O | inconclusive: 20.8 µM [inhibitor, partial curve, poor fit] | –
15 | Cc1ccc(OCC(=O)Nc2cc(S(=O)(=O)N3CCOCC3)ccc2N2CCCC2)cc1 | inconclusive: 2.94 µM [inhibitor, single point] | –
16 | Cc1ccc(NC(=O)CN(C)C(=O)c2ccc(Sc3nncn3C)c([N+](=O)[O-])c2)cc1 | inconclusive: 5.22 µM [inhibitor, partial curve, poor fit] | –
17 | C/C(=C\C(=O)c1ccccc1)Nc1ccc2c(c1)OCO2 | inconclusive: 18.5 µM [inhibitor, single point] | –
18 | O=C1CC(N2CCN(c3ccc(F)cc3)CC2)C(=O)N1c1ccc2c(c1)OCO2 (centres undefined) | inconclusive: 0.0029 µM [inhibitor, full curve, poor fit] | –
19 | Cc1cc(OCC(=O)NC(C)C)ccc1Cl | inconclusive: 0.001 µM [inhibitor] | –
20 | Cc1ccc(OCC(=O)NCC(=O)n2nc(C)cc2C)cc1 | inconclusive: 7.38 µM [inhibitor, partial curve, poor fit] | –
21 | CCCOC(=O)c1cc(NC(=O)/C=C/c2ccccc2)ccc1O | active: 10.4 µM | –
22 | CCOC(=O)c1[nH]c2ccccc2c1NC(=O)C(C)(C)C | inconclusive: 18.5 µM [inhibitor, single point] | –
23 | CSC1=NCCN1C(=O)c1ccc(S(=O)(=O)N(C)C)cc1 | inconclusive: 16.5 µM [inhibitor, single point] | –

Pulled by compound from above (2):
Row | Compound | Potency | activity change, negative = inhibition
5 | O=C(Nc1ccc2ccccc2c1)c1cccnc1 | inconclusive: 0.522 µM [inhibitor, full curve, poor fit] | –
10 | Cc1ccc2c(CN(C)Cc3ccc(Cl)cc3)cc(=O)oc2c1 | – | inactive: -11.2%

Following part:

Row | Compound | Potency | activity change, negative = inhibition
24 | COc1cc2c(C#N)c(N3CCN(c4ccccc4OC)CC3)nc(N)c2c(N)n1 | active: 8.28 µM | –
25 | N#CCCn1nc(-c2ccccc2)cc1-n1c(C(F)(F)F)nc2ccccc21 | inconclusive: 0.0415 µM [inhibitor, full curve, poor fit] | –
26 | COc1cc(OC)c(NC(=O)C2CC(=O)N(c3ccc4c(c3)OCCO4)C2)cc1Cl (centres undefined) | – | inactive: 1.19%
27 | COCCNC(=O)CN(C(=O)CCC(=O)Nc1ccccn1)c1cc(C)ccc1C | inconclusive: 9.28 µM [inhibitor, partial curve, poor fit] | –
28 | C=C(C)C1CC=C(C)/C(=N/NC(=O)CNc2ccc(OCC)cc2)C1 (centres undefined) | inconclusive: 18.5 µM [inhibitor, single point] | –
29 | COc1ccccc1N1CCN(CC(=O)c2ccc(F)cc2)CC1 | – | inactive: 3.59%
30 | COc1ccc(C2C3=C(CC(C)(C)CC3=O)Oc3ncn(CC(C)C)c(=N)c32)cc1 (centres undefined) | inconclusive: 18.5 µM [inhibitor, partial curve, poor fit] | –
31 | Cc1nn(Cc2nc(-c3cccs3)no2)c(C)c1Br | inconclusive: 10.4 µM [inhibitor, single point] | –
32 | Cc1ccccc1C(=O)NNC(=S)NC(=O)c1cccs1 | inconclusive: 10.4 µM [inhibitor, single point] | –
33 | Cc1ccccc1-n1nc(CSc2nc3ccccc3[nH]2)c(-c2ccccc2)c1N | inconclusive: 18.5 µM [inhibitor, single point] | –
34 | Cn1ncc([N+](=O)[O-])c1C(=O)Nc1cccc2ccccc12 | active: 2.33 µM | –
35 | O=C(Nc1ccc(Cl)cc1)N1CCSC1=NCc1ccccc1 | – | inactive: -16.2%
36 | COc1ccc(C)cc1-n1nnnc1SCC1CCCO1 (centres undefined) | inconclusive: 10.4 µM [inhibitor, single point] | –
37 | NC(=O)C1CCN(C(=O)c2ccc(NS(=O)(=O)c3ccc(F)cc3)cc2)CC1 | inconclusive: 18.5 µM [inhibitor, single point] | –
38 | COc1ccc(Oc2cn[nH]c2-c2ccc(O)cc2O)cc1 | inconclusive: 14.7 µM [inhibitor, partial curve, poor fit] | –
39 | CNC(=O)NC(=O)CSc1nnc(-c2ccco2)n1Cc1ccccc1 | – | inactive: -0.617%
40 | O=C1C(CCCNC(=S)NCc2ccccc2)NC(=S)N1Cc1ccccc1 (centres undefined) | inconclusive: 4.15 µM [inhibitor, partial curve, poor fit] | –
41 | CCOC(=O)Cc1csc(NC(=O)CCCC(=O)O)n1 | – | inactive: 48.4%
42 | Nc1nc(Cl)cc(NCCc2ccc(O)cc2)n1 | – | inactive: 27.7%
43 | Cc1ccc(CNC(=O)CN2C(=O)NC(C)(c3cccc(Br)c3)C2=O)cc1 (centres undefined) | inconclusive: 10.4 µM [inhibitor, single point] | –
44 | COc1cc2c(c(OC)c1OC)-c1ccc(NC(=O)c3ccccc3)c(=O)cc1[C@@H](NC(C)=O)CC2 | inconclusive: 2.94 µM [inhibitor, full curve] | –
45 | Cc1ccc(S(=O)(=O)N(CC(=O)NCc2ccco2)C2CCCCC2)cc1 | inconclusive: 10.4 µM [inhibitor, single point] | –
46 | CN(C)CCN(C(=O)c1ccc(Br)s1)c1nc2cc3c(cc2s1)OCCO3 | – | inactive: 186%

Row | Compound | Potency | activity change, negative = inhibition
47 | CC(C)(C)NC(=O)COc1coc(CN2CCN(C(=O)c3ccco3)CC2)cc1=O | – | inactive: -9.69%
48 | O=C(CSc1ccc2nnc(-c3cccc(F)c3)n2n1)NCc1ccco1 | active: 6.57 µM | –
49 | CC(C)CN1CCC(C(=O)NCC2CCCO2)CC1 (centres undefined) | inconclusive: 18.5 µM [inhibitor, single point] | –
50 | CCNc1nc(SCCOc2ccc(Br)cc2)nc(N(C)C)n1 | inconclusive: 2.94 µM [inhibitor, single point] | –
51 | CCOc1ccc(CCNC(=O)c2cn(C)c3ccc(S(=O)(=O)N4CCOCC4)cc3c2=O)cc1OCC | inconclusive: 18.5 µM [inhibitor, single point] | –
52 | COc1ccc(CNC(=O)[C@@H](NC(=O)C2CCN(C(=O)[C@@H](N)CCSC)CC2)C(C)C)cc1 | – | inactive: 18.6%
53 | CC(C)Cc1ccc(C(C)NC(=O)c2ccc(=O)[nH]c2)cc1 (centres undefined) | – | inactive: 135%
54 | Cc1cc(C)n(C(=O)c2ccc(NC(=O)C3COc4ccccc4O3)cc2)n1 (centres undefined) | active: 8.28 µM | –
55 | CCOc1cc(CN2CCCC(C(=O)c3cccc(C(F)(F)F)c3)C2)ccc1O (centres undefined) | – | inactive: 8.02%
56 | COc1ccc(Nc2oc(-c3ccc(OC)cc3)nc2C#N)cc1 | inconclusive: 18.5 µM [inhibitor, single point] | –
57 | COc1ccc(-c2ccnc3nc(-n4cccc4)nn23)cc1 | inconclusive: 8.28 µM [inhibitor, partial curve, poor fit] | –
58 | O=C(Nc1cc(-c2nc3ncccc3o2)ccc1Cl)c1ccco1 | inconclusive: 14.7 µM [inhibitor, single point] | –
59 | Cc1c(N(C)S(=O)(=O)c2cccc(C(=O)NCC3CCCO3)c2)c(=O)n(-c2ccccc2)n1C (centres undefined) | inconclusive: 11.7 µM [inhibitor, single point] | –
60 | O=C(N/N=C/C(Cl)=C/c1ccccc1)c1ccccn1 | inconclusive: 18.5 µM [inhibitor, single point] | –
61 | Cc1ccc(-c2cc(C(=O)N/N=C/C=C/c3ccccc3)n[nH]2)s1 | inconclusive: 10.4 µM [inhibitor, single point] | –
62 | CCCOc1ccc(-c2nnc(-c3ccco3)o2)cc1 | active: 11.7 µM | –
63 | Cc1ccc(S(=O)(=O)N(C(=O)c2ccncc2)c2ccc(OC(=O)c3ccncc3)cc2)cc1 | inconclusive: 1.31 µM [inhibitor, partial curve] | –
64 | Cc1cc(S(=O)(=O)N(Cc2ccc(C(C)(C)C)cc2)Cc2cccs2)ccc1-n1cnnn1 | inconclusive: 13.1 µM [inhibitor, single point] | –
65 | COc1ccccc1N1CCN(C(=O)c2cc3c(s2)CCCCC3)CC1 | inconclusive: 18.5 µM [inhibitor, single point] | –
66 | COc1ccc(C2=NS(=O)(=O)N(C)C(C(=O)NC3CCCC3)=C2)cc1OC | – | inactive: 1.82%
67 | Cc1cccc2cc(C#N)c(NCCNS(=O)(=O)c3ccccc3)nc12 | inconclusive: 1.17 µM [inhibitor, partial curve, poor fit] | –
68 | CCOc1ccc(CN(C)C(C)C(=O)Nc2ccc([N+](=O)[O-])cc2Cl)cc1OC (centres undefined) | inconclusive: 7.38 µM [inhibitor, partial curve, poor fit] | –
69 | CC(CC(=O)Nc1cc(C(F)(F)F)ccc1Cl)c1ccccc1 (centres undefined) | – | inactive: 4.23%

Some of the entries above in a different format:
O=C(CSc1ccc2nnc(-c3cccc(F)c3)n2n1)NCc1ccco1
  Potency: active: 6.57 µM
CC(C)CN1CCC(C(=O)NCC2CCCO2)CC1 (centres undefined)
  Potency: inconclusive: 18.5 µM [inhibitor, single point]
